Measurements reported in publication PMC3792862, “Structure of UreG/UreF/UreH Complex Reveals How Urease Accessory Proteins Facilitate Maturation of Helicobacter pylori Urease” (PLoS Biology, 2013).
No constants are given. Whether binding was seen depends on the method and setting. For part of these data: Binding seen in cells or lysates may run through a third protein. Some binding calls cover weakened binding; strength is not graded here.

Amino acid sequences for entries named in this document (tags omitted).
UniProt Q09065: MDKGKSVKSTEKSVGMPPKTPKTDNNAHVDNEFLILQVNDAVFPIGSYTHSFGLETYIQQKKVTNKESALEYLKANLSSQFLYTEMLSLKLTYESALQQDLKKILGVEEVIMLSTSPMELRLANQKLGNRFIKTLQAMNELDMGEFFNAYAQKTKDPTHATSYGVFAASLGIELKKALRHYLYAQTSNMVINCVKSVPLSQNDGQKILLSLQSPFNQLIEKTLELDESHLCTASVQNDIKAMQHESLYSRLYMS

What was measured:
[1] = biological target: UreG(C66A) (Helicobacter pylori) (UniProt Q09066); assay: SEC-MALS; SEC/SLS; 40 µM UreG or variant with 0.5 mM nickel and 1 mM GTP; Superdex 200, phosphate-buffered saline; both purified
[2] = biological target: UreG(H68A) (Helicobacter pylori) (UniProt Q09066); assay: as above
[3] = biological target: HisGST-UreF (Helicobacter pylori) (UniProt Q09065); assay: pull-down; GST pull-down; cells expressing UreG and cells expressing HisGST-UreF/UreH or the variant mixed and sonicated together; cleared lysate on GST SpinTrap, 30 min at 4°C; buffer C (20 mM Tris pH 7.5, 200 mM NaCl, 1 mM TCEP); eluted with 10 mM glutathione; SDS-PAGE

UreG(C66A) (from UniProt Q09066 1-199)
binding [1]: no binding (tested: 40 µM)

UreG(H68A) (from UniProt Q09066 1-199)
binding [2]: no binding (tested: 40 µM)

B1: UreH (protein, UniProt Q09067 1-265)
chain: MNTYAQESKLRLKTKIGADGRCVIEDNFFTPPFKLMAPFYPKDDLAEIMLLAVSPGMMRGDAQDVQLNIGPNCKLRITSQSFEKIHNTEDGFASRDMHIVVGENAFLDFAPFPLIPFENAHFKGNTTISLRSSSQLLYSEIIVAGRVARNELFKFNRLHTKISILQDEKPIYYDNTILDPKTTDLNNMCMFDGYTHYLNLVLVNCPIELSGVRECIEESEGVDGAVSETASSHLCVKALAKGSEPLLHLREKIARLVTQTTTQKV
binding [3]: binds
